This is an account of results in patent publication US7994159B2, “c-Kit kinase inhibitor” (Eisai R&D Management Co., Ltd., priority 2003, dated 2011).

The chains behind the UniProt entries cited, without tags or fusion partners. Residues count along the entry.
UniProt P10721, 26-976: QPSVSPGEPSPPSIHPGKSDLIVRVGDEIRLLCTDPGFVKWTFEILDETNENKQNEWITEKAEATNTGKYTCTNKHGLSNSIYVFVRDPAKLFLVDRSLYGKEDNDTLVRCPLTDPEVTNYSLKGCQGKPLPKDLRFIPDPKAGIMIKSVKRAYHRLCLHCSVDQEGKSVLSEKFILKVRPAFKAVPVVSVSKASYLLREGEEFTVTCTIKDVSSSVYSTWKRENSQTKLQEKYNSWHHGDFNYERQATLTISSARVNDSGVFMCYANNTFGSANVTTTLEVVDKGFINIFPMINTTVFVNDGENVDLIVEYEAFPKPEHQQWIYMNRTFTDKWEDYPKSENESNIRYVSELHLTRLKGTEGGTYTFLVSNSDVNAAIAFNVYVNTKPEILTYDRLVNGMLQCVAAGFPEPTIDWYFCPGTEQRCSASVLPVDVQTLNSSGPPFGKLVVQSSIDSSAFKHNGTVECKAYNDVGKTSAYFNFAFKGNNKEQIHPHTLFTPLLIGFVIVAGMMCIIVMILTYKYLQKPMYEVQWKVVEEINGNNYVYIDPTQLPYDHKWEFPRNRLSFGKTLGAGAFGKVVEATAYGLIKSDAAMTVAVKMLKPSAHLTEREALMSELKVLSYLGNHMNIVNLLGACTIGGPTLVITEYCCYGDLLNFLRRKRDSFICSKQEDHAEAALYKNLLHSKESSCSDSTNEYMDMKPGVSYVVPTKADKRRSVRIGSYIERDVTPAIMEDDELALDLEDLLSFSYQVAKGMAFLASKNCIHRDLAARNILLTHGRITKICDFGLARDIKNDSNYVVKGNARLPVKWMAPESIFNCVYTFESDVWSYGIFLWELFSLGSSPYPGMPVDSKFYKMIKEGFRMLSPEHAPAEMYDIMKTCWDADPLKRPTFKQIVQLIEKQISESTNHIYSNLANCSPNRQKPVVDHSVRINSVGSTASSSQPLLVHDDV

In test [1] the test system is small cell lung cancer cell line H-526 expressing c-Kit kinase. Kind of test: Effect on proliferation of H-526 cells stimulated by SCF (Cell Counting Kit-8). The test is classed as cell-based. Conditions: Homo sapiens, NCI-H526, 7th day after addition of test substance, read-out: IC50, concentration required for 50% inhibition of the cell proliferation stimulated by SCF. Here is the method:
H-526 cells were cultured in a 5% CO2 incubator (37° C.) using an RPMI1640 medium (Nissui Pharmaceutical Co., Ltd.) containing 10% FCS (purchased from Cell Culture Technologies). After culturing, H-526 cells were washed with PBS three times and were suspended in an RPMI1640 medium containing 0.1% BSA (Sigma Corporation) (hereinafter abbreviated as “BSA-RPMI1640”) at 1.0×10^5 cells/ml. […] On the 7th day after addition of the test substance, 20 μl of Cell Counting Kit-8 (Dojin Laboratories) was added to the well and was cultured in a 5% CO2 incubator (37° C.) for about 2 hours. After color development, the absorbance of each well was determined using a MTP-32 plate reader (Colona Electric Co., Ltd.) at a measuring wavelength of 450 nm and at a reference wavelength of 660 nm. The absorbance of each well was subtracted by the absorbance of the well without addition of SCF, and then the ratio of the absorbance of the well with addition of the test substance to the ratio of the absorbance of the well without addition of the test substance was determined. This ratio was used to calculate the concentration of the test substance required for 50% inhibition of the cell proliferation (IC50).

The target in test [2] is c-Kit kinase (Homo sapiens, UniProt P10721). In words: c-Kit kinase phosphorylation by SCF stimulation in H-526 cells (immunoblot, phospho-c-kit Tyr719). Conditions: FIG. 1. Format: cell-based. Also on record: in the small cell lung cancer cell line H-526 expressing c-Kit kinase; host or cells: H-526 small cell lung cancer cells. How it is done: H-526 cells were cultured in a 5% CO2 incubator (37° C.) using an RPMI1640 medium containing 10% FCS. After culturing, H-526 cells were washed with PBS three times and were suspended in a BSA-RPMI1640 medium at 5.0×10^5 cells/ml. Each 1 ml of this cell suspension was inoculated to the well of a 24-well plate and the suspension was cultured in a 5% CO2 incubator (37° C.) for 6 hours. After 6-hours culturing, 1 ml of BSA-RPMI1640 containing a diluted test substance was added to each well and culturing was carried out in a 5% CO2 incubator (37° C.) for 1 hour. […] After 5-minutes culturing, the cells were washed with PBS and 100 μl of SDS sample loading buffer was added to the cells to prepare a cell lysate sample. After the sample was heat-treated at 94° C. for 10 minutes, it was cryopreserved at -20° C. […] After electrophoresis, the sample was transferred to a PVDF membrane (Amersham Pharmacia Biotech Inc.) for 3 hours. The transferred membrane was subjected to immunoblot using a phospho-c-kit ([…]) antibody (Cell Signaling Technology Inc.) as a primary antibody and an anti-rabbit IgG, HRP-linked antibody (Cell Signaling Technology Inc.) as a secondary antibody. After the membrane was washed, it was developed with a Super Signal (Pierce Biotechnology, Inc.).
On the technique in general: A western blot detects proteins with antibodies after separation by electrophoresis.

For `Cc1ccc(NC(=O)c2ccc(CN3CCN(C)CC3)cc2)cc1Nc1nccc(-c2cccnc2)n1` [STI571, reference compound], in test [1], the IC50 stood at 190 nM. In addition, the “phosphorylation inhibitory activity relative to that of Compound 1” value in test [2] is recorded as “approximately one tenth”.
